PubChem BioAssay AID1259424 | University of Nebraska Medical Center – 2018

Aim: 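Find knockdowns that reproduce the expression shifts seen after KSR1 loss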 (primary screen)
Cell system: human HCT116 colon cancer cells
Knock-down reagent: siRNA pool against human genes, 50 nM
Measured: 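Log2 levels of six mRNAs (branched-DNA multiplex), adjusted by two reference genes and the non-targeting median, then scored against the average KSR1 knockdown pattern as Pearson r and euclidean distance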
Reading the numbers: mean correlation with KSR1 profile and KSR1 correlation: higher = expression change more like KSR1 knockdown; mean distance from KSR1 profile: higher = expression change less like KSR1 knockdown
The deposit covers about 14,000 reagents; below is a random part of them. 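Higher correlation or smaller distance means closer resemblance to KSR1 loss; control wells, including KSR1 knockdowns, recur on many plates.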 Further read-outs or replicates are left out here. The record does not give: the time to read-out.

no.	gene	mean correlation with KSR1 profile	mean distance from KSR1 profile	KSR1 correlation, replicate 1	KSR1 correlation, replicate 2
1	INTS14 (integrator complex subunit 14)	0.614	1.84	0.417	0.53
2	IGHV5-78 (immunoglobulin heavy variable 5-78 (pseudogene))	-0.532	3.08	-0.353	-0.678
3	TNFRSF8 (TNF receptor superfamily member 8)	0.377	2.85	0.379	0.291
4	GAN (gigaxonin)	0.397	1.55	0.313	0.56
5	SEC23B (SEC23 homolog B, COPII component)	-0.0317	3.66	-0.0334	0.261
6	KRTAP9-3 (keratin associated protein 9-3)	0.819	1.25	0.743	0.789
7	GNAO1 (G protein subunit alpha o1)	0.69	1.36	0.557	0.688
8	DMXL2 (Dmx like 2)	-0.921	2.78	-0.896	-0.918
9	PTBP2 (polypyrimidine tract binding protein 2)	-0.0907	1.68	-0.227	0.208
10	LYRM4 (LYR motif containing 4)	-0.215	1.99	-0.108	-0.266
11	ODAD4 (outer dynein arm docking complex subunit 4)	-0.127	2.47	-0.196	-0.247
12	AASS (aminoadipate-semialdehyde synthase)	0.181	3.11	0.247	0.222
13	AFAP1-AS1 (AFAP1 antisense RNA 1)	0.288	2.4	0.152	0.0924
14	GALNT16 (polypeptide N-acetylgalactosaminyltransferase 16)	-0.411	2.39	-0.515	-0.13
15	MPP2 (MAGUK p55 scaffold protein 2)	-0.1	2.89	0.216	-0.0247
16	NFKBID (NFKB inhibitor delta)	0.581	1.31	0.398	0.517
17	PCDHGB1 (protocadherin gamma subfamily B, 1)	-0.129	2.81	0.0114	-0.466
18	JRK (Jrk helix-turn-helix protein)	-0.762	1.78	-0.728	-0.706
19	DPH5 (diphthamide biosynthesis 5)	-0.486	2.28	-0.483	-0.725
20	ABCG1 (ATP binding cassette subfamily G member 1)	-0.551	2.72	-0.307	-0.434
21	GANC (glucosidase alpha, neutral C)	0.346	1.97	0.413	0.178
22	RBBP6 (RB binding protein 6, ubiquitin ligase)	-0.144	2.91	-0.347	-0.0293
23	CEP170 (centrosomal protein 170)	0.329	1.1	0.558	0.228
24	NUDT9 (nudix hydrolase 9)	0.338	2.46	0.189	0.623
25	CD93 (CD93 molecule)	0.384	1.37	0.572	0.286
26	LOC84843 (retired record)	0.357	2.07	-0.0153	0.233
27	DUSP19 (dual specificity phosphatase 19)	0.26	1.18	0.282	0.0335
28	FGF20 (fibroblast growth factor 20)	0.00365	2.4	0.158	-0.0538
29	CNGA2 (cyclic nucleotide gated channel subunit alpha 2)	-0.434	3.05	-0.529	-0.27
30	TFPI (tissue factor pathway inhibitor)	-0.241	1.6	-0.109	-0.273
31	SRSF10 (serine and arginine rich splicing factor 10)	-0.42	2.64	-0.193	-0.453
32	LILRA3 (leukocyte immunoglobulin like receptor A3)	0.251	1.87	0.309	0.167
33	KIAA1549L (KIAA1549 like)	0.35	1.74	0.205	0.308
34	SLC68A1	-0.227	2.61	-0.0753	0
35	PCYT1B (phosphate cytidylyltransferase 1B, choline)	-0.251	1.86	-0.386	-0.188
36	MYO7B (myosin VIIB)	0.271	0.787	0.558	-0.0737
37	LIMCH1 (LIM and calponin homology domains 1)	-0.523	3.17	-0.431	-0.561
38	CDK9 (cyclin dependent kinase 9)	-0.0526	2.29	-0.0695	0.00514

An excerpt from above, showing only “KSR1 correlation, replicate 1”:
KIAA1549L (KIAA1549 like): 0.205
SLC68A1: -0.0753
PCYT1B (phosphate cytidylyltransferase 1B, choline): -0.386
MYO7B (myosin VIIB): 0.558
LIMCH1 (LIM and calponin homology domains 1): -0.431
CDK9 (cyclin dependent kinase 9): -0.0695

The listing continues.
no.	gene	mean correlation with KSR1 profile	mean distance from KSR1 profile	KSR1 correlation, replicate 1	KSR1 correlation, replicate 2
39	VIL1 (villin 1)	0.267	2.53	0.847	0.268
40	PSMG2 (proteasome assembly chaperone 2)	-0.227	1.47	-0.246	-0.131
41	STK31 (serine/threonine kinase 31)	-0.336	2.92	-0.157	-0.329
42	TFB1M (transcription factor B1, mitochondrial)	0.514	1.99	0.448	0.575
43	PPIC (peptidylprolyl isomerase C)	-0.382	1.73	-0.178	-0.315
44	RPS11 (ribosomal protein S11)	-0.28	1.63	-0.48	0.157
45	GSDMD (gasdermin D)	0.153	1.66	0.0965	0.00299
46	HOXD8 (homeobox D8)	-0.255	2.64	-0.0537	-0.215
47	BFSP1 (beaded filament structural protein 1)	0.321	2.2	0.364	0.354
48	UBTD2 (ubiquitin domain containing 2)	-0.59	2.78	-0.593	-0.652
49	GRPR (gastrin releasing peptide receptor)	0.663	1.33	0.61	0.663
50	SLC2A6	-0.424	1.98	-0.294	-0.523
51	TAAR1 (trace amine associated receptor 1)	0.825	2.52	0.91	0.824
52	PLEKHG4 (pleckstrin homology and RhoGEF domain containing G4)	-0.159	4.18	-0.0369	-0.255
53	GRIK5 (glutamate ionotropic receptor kainate type subunit 5)	-0.507	2.51	-0.525	-0.44
54	CXCL2 (C-X-C motif chemokine ligand 2)	0.744	1.05	0.652	0.864
55	RINT1 (RAD50 interactor 1)	-0.367	6.62	-0.171	-0.0364
56	EMILIN1 (elastin microfibril interfacer 1)	0.211	2.33	0.164	0.134
57	RNF167 (ring finger protein 167)	-0.263	2.84	0.0281	-0.279
58	GARS1 (glycyl-tRNA synthetase 1)	0.803	2.11	0.746	0.795
59	ZNF133 (zinc finger protein 133)	-0.401	2.88	-0.258	-0.404
60	MCM2 (minichromosome maintenance complex component 2)	0.677	1.05	0.668	0.591
61	PLAC8 (placenta associated 8)	0.0272	2.43	-0.065	0.218
62	HINFP (histone H4 transcription factor)	0.624	1.09	0.621	0.748
63	AAMDC (adipogenesis associated Mth938 domain containing)	0.294	2.31	0.117	0.123
